For this test, the target named is Brucella abortus Bab2_0247 (Ba-BrbF), AFRPP formamidase (Brucella abortus) (UniProt Q2YJ05). As to the kind of experiment: two-hybrid.

These are yes or no findings as the source states them, for the method shown. Some results given as binding are weak or reduced against the parent protein; the word gives no strength.

For “Brucella abortus Bab2_0247 (Ba-BrbF), AFRPP formamidase (from UniProt Q2YJ05 1-256) (enzyme)”, the binding result is recorded as “binds”.

Values taken from PMC9478397.
